Results deposited as PubChem BioAssay AID1224830 (NIAID, 2016)

Aim: 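Regulators of TLR4 signalling towards TNF-alpha in macrophage-like cells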 (primary screen)
System: human THP-1 monocytic leukaemia cells, TNF dual-luciferase reporter clone, PMA-differentiated to macrophage-like cells
Knock-down reagent: siRNA pool against human genes, 50 nM
Duration: LPS for 4 h, given about 3 days after siRNA transfection
Challenge: bacterial LPS (TLR4 ligand), 10 ng/ml
Detection: 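Ratio of firefly to renilla light, scaled to the plate median and expressed as a robust z-score per replicate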
Scale: TNF reporter robust z-score: higher = stronger TNF reporter response to LPS
Hit rule: 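a well is active when its z-score exceeds 2.8 or falls below -1.5; control wells carry no call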
The deposit covers about 18,000 reagents; this is an unselected part. About 2,900 of them (16%) were called active. 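Calls are made per well; low scores hint the gene aids the LPS response, high scores that it dampens it.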 A number with no mark means an inactive call. Repeated entries: four replicate wells of each siRNA pool. No sequences are given here.

{"gene": "CAV2 (caveolin 2)", "TNF reporter robust z-score": -0.14}
{"gene": "CAV2 (caveolin 2)", "TNF reporter robust z-score": -0.12}
{"gene": "CAV2 (caveolin 2)", "TNF reporter robust z-score": -1.06}
{"gene": "CAV2 (caveolin 2)", "TNF reporter robust z-score": -0.37}
{"gene": "TNFAIP2 (TNF alpha induced protein 2)", "TNF reporter robust z-score": 1.05}
{"gene": "TNFAIP2 (TNF alpha induced protein 2)", "TNF reporter robust z-score": 2}
{"gene": "TNFAIP2 (TNF alpha induced protein 2)", "TNF reporter robust z-score": "3.52 (active)"}
{"gene": "TNFAIP2 (TNF alpha induced protein 2)", "TNF reporter robust z-score": 1.45}
{"gene": "SKIL (SKI like proto-oncogene)", "TNF reporter robust z-score": -0.67}
{"gene": "SKIL (SKI like proto-oncogene)", "TNF reporter robust z-score": 0.05}
{"gene": "SKIL (SKI like proto-oncogene)", "TNF reporter robust z-score": -0.14}
{"gene": "SKIL (SKI like proto-oncogene)", "TNF reporter robust z-score": -0.36}
{"gene": "LMBR1L (limb development membrane protein 1 like)", "TNF reporter robust z-score": 0.05}
{"gene": "LMBR1L (limb development membrane protein 1 like)", "TNF reporter robust z-score": 0.82}
{"gene": "LMBR1L (limb development membrane protein 1 like)", "TNF reporter robust z-score": -0.47}
{"gene": "LMBR1L (limb development membrane protein 1 like)", "TNF reporter robust z-score": -0.04}
{"gene": "PHLDA1 (pleckstrin homology like domain family A member 1)", "TNF reporter robust z-score": -0.38}
{"gene": "PHLDA1 (pleckstrin homology like domain family A member 1)", "TNF reporter robust z-score": 0.68}
{"gene": "PHLDA1 (pleckstrin homology like domain family A member 1)", "TNF reporter robust z-score": "2.95 (active)"}
{"gene": "PHLDA1 (pleckstrin homology like domain family A member 1)", "TNF reporter robust z-score": 0.65}
{"gene": "NIBAN2 (niban apoptosis regulator 2)", "TNF reporter robust z-score": -0.09}
{"gene": "NIBAN2 (niban apoptosis regulator 2)", "TNF reporter robust z-score": -0.24}
{"gene": "NIBAN2 (niban apoptosis regulator 2)", "TNF reporter robust z-score": 1.01}
{"gene": "NIBAN2 (niban apoptosis regulator 2)", "TNF reporter robust z-score": 1.06}
{"gene": "KLRG1 (killer cell lectin like receptor G1)", "TNF reporter robust z-score": -1.27}
{"gene": "KLRG1 (killer cell lectin like receptor G1)", "TNF reporter robust z-score": -1.19}
{"gene": "KLRG1 (killer cell lectin like receptor G1)", "TNF reporter robust z-score": -1.34}
{"gene": "KLRG1 (killer cell lectin like receptor G1)", "TNF reporter robust z-score": -0.87}
{"gene": "NFKB2 (nuclear factor kappa B subunit 2)", "TNF reporter robust z-score": 2.08}
{"gene": "NFKB2 (nuclear factor kappa B subunit 2)", "TNF reporter robust z-score": "3.38 (active)"}
{"gene": "NFKB2 (nuclear factor kappa B subunit 2)", "TNF reporter robust z-score": "3.01 (active)"}
{"gene": "NFKB2 (nuclear factor kappa B subunit 2)", "TNF reporter robust z-score": "3.07 (active)"}
